Here are results for three molecules from publication PMC7606486, “CFAP45 deficiency causes situs abnormalities and asthenospermia by disrupting an axonemal adenine nucleotide homeostasis module” (Nature Communications, 2020).

Results are given in words; binding and its absence hold for the method and conditions named. For part of these data: Binding seen in cells or lysates may run through a third protein. Some entries that bind do so weakly or less than the wild type. For part of these data: Tags and fused reporters may be left off the sequences shown.

Experiment [1] has as its target myc-tagged CFAP45 (human) (UniProt Q9UL16). In words: co-IP; HEK293 cells cotransfected with myc-DNALI1 and FLAG-CFAP45 or myc-CFAP45 and FLAG-DNALI1; IP with rabbit polyclonal anti-CFAP45 or anti-DNALI1 overnight at 4 °C; IB with monoclonal anti-myc and anti-FLAG.
Experiment [2] addresses CFAP45 full-length (551 amino acid) GAL4-BD bait (human) (UniProt Q9UL16). In words: two-hybrid; GAL4-based yeast two-hybrid, strain PJ69-4A; CFAP45 as GAL4-BD bait, preys fused to GAL4-AD; growth on selective media (LWH + 3-AT).
For experiment [3], the target named is recombinant full-length (p66) CFAP45 (human) (UniProt Q9UL16). The experiment can be described thus: co-IP; recombinant, epitope-tagged proteins co-expressed in HEK293 cells; immunoprecipitation of the bait; details only in supplementary figures.

B1: FLAG-tagged DNALI1 (protein, UniProt O14645 1-258)
chain: MIPPADSLLKYDTPVLVSRNTEKRSPKARLLKVSPQQPGPSGSAPQPPKTKLPSTPCVPDPTKQAEEILNAILPPREWVEDTQLWIQQVSSTPSTRMDVVHLQEQLDLKLQQRQARETGICPVRRELYSQCFDELIREVTINCAERGLLLLRVRDEIRMTIAAYQTLYESSVAFGMRKALQAEQGKSDMERKIAELETEKRDLERQVNEQKAKCEATEKRESERRQVEEKKHNEEIQFLKRTNQQLKAQLEGIIAPKK
Regarding B1, the binding result in experiment [1] was “binds”.

B2: DNALI1 GAL4-AD prey (protein, UniProt O14645 1-258)
chain: B1 chain
Regarding B2, in experiment [2], the binding entry was “binds”.

B3: recombinant AK8 (enzyme, UniProt Q96MA6-1 1-479)
chain: MDATIAPHRIPPEMPQYGEENHIFELMQNMLEQLLIHQPEDPIPFMIQHLHRDNDNVPRIVILGPPASGKTTIAMWLCKHLNSSLLTLENLILNEFSYTATEARRLYLQRKTVPSALLVQLIQERLAEEDCIKQGWILDGIPETREQALRIQTLGITPRHVIVLSAPDTVLIERNLGKRIDPQTGEIYHTTFDWPPESEIQNRLMVPEDISELETAQKLLEYHRNIVRVIPSYPKILKVISADQPCVDVFYQALTYVQSNHRTNAPFTPRVLLLGPVGSGKSLQAALLAQKYRLVNVCCGQLLKEAVADRTTFGELIQPFFEKEMAVPDSLLMKVLSQRLDQQDCIQKGWVLHGVPRDLDQAHLLNRLGYNPNRVFFLNVPFDSIMERLTLRRIDPVTGERYHLMYKPPPTMEIQARLLQNPKDAEEQVKLKMDLFYRNSADLEQLYGSAITLNGDQDPYTVFEYIESGIINPLPKKIP
Consider B3, for which the binding result in experiment [3] is “binds”.
